In PubChem BioAssay AID2685 (National Center for Advancing Translational Sciences (NCATS), 2010):
In all, about 320,000 compounds went through this assay and about 2,100 (0.66%) were called active. The inconclusive results got no clear call from the source; some entries with a clear call stand among them for comparison. Calls follow the shape of the dose curve; as a rule, active = well fitted inhibition curve with a large enough effect in the signal ratio, with a control signal flat (not every such curve was filed as active); inconclusive = small, poorly fitted or top-dose-only effect, or effect the other way, or a change in a side signal; inactive = flat fitted curve, though single readings scatter; the % refers to the signal ratio. A potency beside an inconclusive call is a rough fit, not a confirmed value.

Experiment: qHTS Assay for Lipid Storage Modulators in Drosophila S3 Cells
Details: BODIPY lipid droplet fluorescence, 18-24 h, cells fed with added oleic acid; lipid storage change, negative = inhibition: at 46.1 µM (top of the series) unless noted
How it was run: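 Drosophila S3 cells got compounds at several concentrations plus oleic acid (400 uM solution). Laser-scanning cytometry with 488 nm excitation read lipid droplets at 500-530 nm and cells at 575-640 nm. Percent activity was relative to 20 uM Triacsin C.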
% is scaled to controls: 0 for no effect and ±100 for the full control effect; potency is read from the fitted curve at half-maximal effect.

Row | Structure (SMILES) | Potency | lipid storage change, negative = inhibition | outcome
1 | CCC(Sc1n[nH]c(=O)[nH]c1=O)C(=O)OCc1ccccc1 (stereo not given) | inconclusive: 25.9 µM [activator, single point] | – | –
2 | O=C(CN1CCC(C(=O)c2ccc3c(c2)OCCO3)CC1)NCc1ccc(F)cc1 | inconclusive: 6.51 µM [activator, single point] | – | –
3 | O=C(NC1CCCCNC1=O)c1ccc(Cl)cc1 (stereo not given) | – | inconclusive: -32.6% | –
4 | FC(F)(F)c1ccc(N2CCOCC2)c(Nc2nc3ccccc3n3cnnc23)c1 | inconclusive: 29.1 µM [falling, single point] | – | –
5 | Cc1ccc(NN=C2c3ccccc3-c3ccccc32)cc1 | – | inconclusive: -25.7% | –
6 | CCCCn1c(N)c(N(CCOC)C(=O)CN2C(=O)c3ccccc3C2=O)c(=O)[nH]c1=O | – | inconclusive: 39% | –
7 | CCOC(=O)C1(CC/C(C)=N\NC(N)=O)CC(C)(C)OC1=O (stereo not given) | – | inconclusive: -10.5% | –
8 | CSc1nc2sc3c(c2c(=O)[nH]1)CCC3 | – | inconclusive: -2.86% | –
9 | CC1CN(C(=O)c2ccc(COc3ccccc3Cl)o2)CC(C)O1 (stereo not given) | – | inconclusive: -100% | –
10 | Cc1nn(Cc2ccc(C(=O)Nc3ccccc3C(F)(F)F)o2)c(C)c1Br | – | inconclusive: -29% | –
11 | CCOc1cccc(CN2CCCC(CCC(=O)NCc3ccccc3F)C2)c1O (stereo not given) | – | inconclusive: 0.16% | –
12 | Cc1cc(NC(=O)CSc2ccc(-c3nc4cc(C)c(C)cc4[nH]3)cn2)no1 | – | inconclusive: 20.1% | –
13 | O=C(O)C(Cc1c[nH]c2ccccc12)N1C(=O)C2C3c4ccccc4C(c4ccccc43)C2C1=O (stereo not given) | – | inconclusive: 7.49% | –
14 | CC[C@@H]1[C@H]2CCCC(=O)N3CC[C@@H](C[C@@H]1Nc1ccccc1)[C@@H]23 | – | inconclusive: -1.95% | –
15 | CNC(=O)c1[nH]cnc1C(=O)Nc1cccc(C)c1 | – | inconclusive: 28.8% | –
16 | CCN1CCN(S(=O)(=O)c2cccc([N+](=O)[O-])c2)CC1 | – | inconclusive: -34.6% | –
17 | c1ccc(Sc2cccc3ccccc23)c(CNC2=NCCN2)c1 | inconclusive: 6.51 µM [falling, partial curve, poor fit] | – | –
18 | O=C(c1ccc(Cl)cc1Cl)N1CCN(c2ccc(N3CCOCC3)nn2)CC1 | – | inconclusive | –
19 | O=C(Cc1ccccc1)Nc1ncccn1 | inconclusive: 20.6 µM [falling, single point] | – | –
20 | Cc1cc(C)nc(Sc2ccc(C=O)cc2[N+](=O)[O-])n1 | – | inconclusive: -11.8% | –
21 | OCC[C@H]1C[C@@H](O)[C@H](O)[C@]2(CCCCO2)O1 | – | inconclusive: -2.93% | –
22 | S=C(Nc1ccccn1)Nc1ccccc1Cl | – | inactive: 15.4% | –
23 | CCn1nc(C(=O)NC2=NCCS2)c2ccccc2c1=O | – | inconclusive: 34.8% | –
24 | CCN(CCn1cccn1)C(=O)CCc1nnc(C2(c3ccc(Cl)cc3)CCC2)o1 | inconclusive: 0.461 µM [falling, full curve, poor fit] | – | –
25 | CC(C)(C)NC1=CC(=O)OC12CCCCC2 | – | inconclusive: -3.01% | –

Row | Structure (SMILES) | Potency | lipid storage change, negative = inhibition | outcome
26 | CCOC(=O)c1ccc(NC(=S)N2CCC(C(N)=O)CC2)cc1 | – | inconclusive: 9.1% | –
27 | O=S(=O)(c1ccc(SCc2ccccc2)nc1)N1CCCCCC1 | – | inconclusive: 29.2% | –
28 | COCCN(C(=O)COC(=O)Cc1cccc(OC)c1)c1c(N)n(Cc2ccccc2)c(=O)[nH]c1=O | – | inconclusive | –
29 | Cc1ccc(CS(=O)(=O)c2nsc(C)c2C#N)cc1 | – | inconclusive: 18.8% | –
30 | O=C(Cn1cnc2ccccc2c1=O)c1ccc2c(c1)OCCO2 | – | inconclusive: 18.6% | –
31 | CCN(CC)CC(=O)NC1CC(C)(C)Cc2c1cnn2-c1ccc(F)cc1 (stereo not given) | – | inconclusive: 33.1% | –
32 | CC1=NN(c2ccc(C)cc2)C(=O)/C1=C\c1ccc(Br)s1 | inconclusive: 29.1 µM [falling, single point] | – | –
33 | Cc1ccc(N/N=C(/Sc2nnnn2-c2ccccc2)C(=O)c2ccccc2)cc1 | inconclusive: 14.6 µM [activator, partial curve] | – | –
34 | CCOC(=O)Cn1nnnc1CN1CCN(c2ccc(OC)cc2)CC1 | inconclusive: 0.13 µM [falling, full curve, poor fit] | – | –
35 | CN(C)C(CNC(=O)c1cc(S(=O)(=O)N(C)c2ccc(F)cc2)ccc1Cl)c1ccco1 (stereo not given) | – | inactive: 19.2% | –
36 | CC(=O)C1=C(O)C(=O)N(CC(=O)O)C1c1ccccc1Cl (stereo not given) | inconclusive: 2.31 µM [falling, partial curve, poor fit] | – | –
37 | CCn1c(-c2csc3c2CCCC3)n[nH]c1=S | – | inconclusive: 20.6% | –
38 | CC(C)C(=O)N1CCC(c2nc(-c3ccc(S(=O)(=O)N4CCCC4)cc3)no2)CC1 | inconclusive: 18.4 µM [falling, partial curve, poor fit] | – | –
39 | CCOC(=O)N1CCC(NC(=O)c2ccc(CS(=O)(=O)c3ccc(OC)cc3)o2)CC1 | inconclusive: 29.1 µM [rising, single point] | – | –
40 | CC(C)c1ccc(-c2nc3c([nH]2)c(=O)n(C)c(=O)n3C)cc1 | inconclusive: 2.31 µM [falling, partial curve] | – | –
41 | Cc1ccc(NC(=O)C(Cc2ccccc2)NC(=O)c2ccco2)cc1 (stereo not given) | inconclusive: 0.116 µM [falling, full curve, poor fit] | – | –
42 | COc1cc2c(cc1OC)-c1cc(N3CCCc4ccccc43)nc(=O)n1CC2 | inconclusive: 16.4 µM [activator, partial curve, poor fit] | – | –
43 | Cc1nc(NS(=O)(=O)c2ccccc2)sc1NC(=O)Nc1ccccc1 | – | inconclusive: -2.11% | –
44 | CN(C)S(=O)(=O)Oc1ccsc1C(=O)Nc1ccc(C(F)(F)F)cc1 | inconclusive: 20.6 µM [activator, partial curve] | – | –
45 | CC(=O)N1CCN(S(=O)(=O)c2cccc(C(=O)OCc3ccc(C(C)(C)C)cc3)c2)CC1 | – | inconclusive | –
46 | CCOC(=O)C1=C(c2ccccc2)NC(=O)NC1c1cc(OC)c(O)c([N+](=O)[O-])c1 (stereo not given) | – | inconclusive: 25% | –
47 | CCN(CC)S(=O)(=O)c1ccc(Cl)c(C(=O)NCC2CCCO2)c1 (stereo not given) | – | inconclusive: -0.911% | –
48 | CCCc1nc(SCC(N)=O)[nH]c(=O)c1CC | – | inconclusive: -22.6% | –
49 | COc1ccc(CC(=O)NCCC(C)C)cc1S(=O)(=O)N1CCOCC1 | inconclusive: 0.0046 µM [activator, full curve, poor fit] | – | –
50 | COC(=O)c1ccc(COc2ccc(C=O)cc2)o1 | – | – | inactive [at 46.1 µM]

3 entries out of the list, ordered by SMILES length, smallest number first:
Row | Structure (SMILES) | Potency | lipid storage change, negative = inhibition | outcome
26 | CCOC(=O)c1ccc(NC(=S)N2CCC(C(N)=O)CC2)cc1 | – | inconclusive: 9.1% | –
35 | CN(C)C(CNC(=O)c1cc(S(=O)(=O)N(C)c2ccc(F)cc2)ccc1Cl)c1ccco1 (stereo not given) | – | inactive: 19.2% | –
28 | COCCN(C(=O)COC(=O)Cc1cccc(OC)c1)c1c(N)n(Cc2ccccc2)c(=O)[nH]c1=O | – | inconclusive | –

Additional results.

Row | Structure (SMILES) | Potency | lipid storage change, negative = inhibition | outcome
51 | O=c1oc2c(CN3CCCCC3)c(O)ccc2cc1-c1nc2ccccc2[nH]1 | – | inconclusive: 21.8% | –
52 | CCOC(=O)N1CCN(c2c(N3CCc4ccccc43)c(=O)c2=O)CC1 | – | inconclusive: 60.3% | –
53 | CC(C)OC(=O)c1c(NS(=O)(=O)c2ccccc2)sc2c1CCCC2 | – | inconclusive: 7.22% | –
54 | Cn1nnc2cc(C(=O)N3CCC(c4ccccc4)C3)ccc21 (stereo not given) | inconclusive: 6.51 µM [falling, partial curve, poor fit] | – | –
55 | Cc1ccc(CCNC(=O)c2nn(C)c3c2CS(=O)(=O)c2ccccc2-3)cc1 | – | inconclusive: -40.3% | –
56 | N#Cc1c(Nc2ccc(F)cc2)sc(C(=O)c2ccccc2)c1N | – | inconclusive: 8.47% | –
57 | Cc1ccc(C(NC(=O)CN2C(=O)NC3(CCCC3)C2=O)c2ccccc2)cc1 (stereo not given) | – | inconclusive: -32.7% | –
58 | Cc1cc(C)c(S(=O)(=O)/N=C2\C=C(Nc3ccc(C(=O)O)cc3)C(=O)c3ccccc32)c(C)c1 | active: 0.92 µM | – | –
59 | COc1ccc(-c2nnn(CC(=O)N(CC(=O)NC3CCCC3)c3cccc(C)c3)n2)cc1OC | inconclusive: 11.6 µM [activator, single point] | – | –
60 | COc1ccc(-n2c(SCC(=O)Nc3nccs3)nc3c(c2=O)SC(C)C3)cc1 (stereo not given) | – | inconclusive: 30.6% | –
61 | CCN(CC)CCN1C(=O)C(=O)/C(=C(/O)c2c(C)[nH]c(C(=O)OC)c2C)C1c1cccc(OC)c1 (stereo not given) | – | inconclusive: 17.1% | –
62 | COc1ccc(CNC(=O)Cc2ccc(-c3ccccc3)cc2)cc1OC | – | inconclusive: 10.9% | –
63 | COc1ccc(CCNC(=O)C2CCN(C(=O)c3ccc(C(C)(C)C)cc3)CC2)cc1OC | inconclusive: 13 µM [falling, partial curve] | – | –
64 | O=C(c1cccs1)N1CCC(c2nc3c(nnn3Cc3ccccc3Cl)c(=O)[nH]2)CC1 | inconclusive: 6.51 µM [falling, single point] | – | –
65 | CC(=O)Nc1ccc(S(=O)(=O)Nc2ccccc2C(=O)N2CCCCCC2)cc1 | – | inconclusive: -91% | –
66 | CCOc1ccc(C(C(=O)NCC2CCCO2)N(Cc2ccccc2)C(=O)c2snc(C(N)=O)c2N)cc1 (stereo not given) | – | inconclusive: -93.7% | –
67 | CCOC(=O)c1nnn(-c2nonc2N)c1CN(C)C1CCCCC1 | – | inconclusive: 16.1% | –
68 | COc1cc(C(=O)OCC(=O)Nc2ccccc2C(=O)NC2CC2)c([N+](=O)[O-])cc1OC | inconclusive: 0.184 µM [falling, full curve, poor fit] | – | –
69 | Cc1nc2c(sc(=S)n2Cc2ccco2)c(=O)n1CC(=O)Nc1ccccc1 | – | inconclusive: -43.2% | –
70 | COc1ccc(-n2c(SCC(=O)N3CCOCC3)nc(O)cc2=O)cc1 | – | inconclusive: 88.2% | –
71 | CCN(C(=O)CSc1nc(C)nc2sc(C)c(C)c12)C1CCS(=O)(=O)C1 (stereo not given) | – | inconclusive: 38.6% | –
72 | Cc1ccc(NS(=O)(=O)c2ccc(-c3coc(C)n3)cc2)c(C)c1 | inconclusive: 1.3 µM [activator, partial curve, poor fit] | – | –
73 | CCCNCc1cc(Br)ccc1OCC(=O)NCCc1ccccc1 | – | inconclusive: 91% | –
74 | CCC(=O)N1CCCc2cc(S(=O)(=O)N3CCN(c4ccccc4F)CC3)ccc21 | – | inconclusive: 57.9% | –
75 | COc1ccc(CN2CCN(Cc3ccon3)CC2CCO)c(C)c1C (stereo not given) | – | inconclusive: -14% | –
